Results are given in words; binding and its absence hold for the method and conditions named. A result given as binding can be weak or reduced; the word gives no strength.

By UniProt entry, the sequences of proteins in these tests, tags left out. Where a name states a change or a piece, a line headed by the entry shows the natural chain unless it says otherwise.
UniProt P15090: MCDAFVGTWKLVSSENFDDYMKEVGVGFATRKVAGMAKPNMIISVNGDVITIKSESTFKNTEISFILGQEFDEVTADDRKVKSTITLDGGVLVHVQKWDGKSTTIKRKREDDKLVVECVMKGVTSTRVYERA
UniProt Q9DBL9: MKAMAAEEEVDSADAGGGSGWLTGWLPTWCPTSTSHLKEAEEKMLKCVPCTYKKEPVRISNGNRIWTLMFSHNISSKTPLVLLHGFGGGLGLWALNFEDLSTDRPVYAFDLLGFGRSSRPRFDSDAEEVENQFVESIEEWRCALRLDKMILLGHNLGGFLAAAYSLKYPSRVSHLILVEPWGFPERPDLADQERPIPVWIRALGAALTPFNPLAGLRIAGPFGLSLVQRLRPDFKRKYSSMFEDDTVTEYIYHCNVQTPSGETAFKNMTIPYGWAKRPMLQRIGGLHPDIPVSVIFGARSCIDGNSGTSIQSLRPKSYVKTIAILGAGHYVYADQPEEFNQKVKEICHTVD

For this experiment, the target named is A-Fabp^D18K (human) (UniProt P15090). As to the kind of experiment: ELISA; solid phase assay: 96-well polystyrene plates coated overnight with 3 μg of purified Fabp, blocked with 5% delipidated BSA in TBS (50 mM Tris, pH 8.0, 150 mM NaCl); COS-7 cell extracts (10–60 μg of total protein) with His-tagged proteins, 2% BSA, 0.05% Tween 20, overnight; anti-His primary and Hrp-conjugated secondary antibody, absorbance 450/620 nm; only the target purified. In general terms: In an ELISA, binding on a coated surface is turned into a signal by an enzyme label.

Consider “His-tagged murine Cgi-58 (from UniProt Q9DBL9 1-351)”, for which the binding entry was “binds”.
